Measurements taken from paper PMC9848351, “Discovery of new pyridine-quinoline hybrids as competitive and non-competitive PIM-1 kinase inhibitors with apoptosis induction and caspase 3/7 activation capabilities” (Journal of Enzyme Inhibition and Medicinal Chemistry, 2023).

How the values were obtained:
[1] = tested on: myeloid leukaemia cell line (NFS-60); test: MTT anticancer activity, NFS-60; type: cell-based; conditions: selectivity index, Wi-38 versus NFS-60
Experimental: (§1) Anticancer effect of the above-mentioned compounds was evaluated using four human cancer cell lines. Colon cancer cells (Caco-2), myeloid leukaemia cell line (NFS-60), liver cancer cell line (HepG-2) and prostate cancer cell line (PC-3) using MTT method was used for assaying cell viability[26] (Supplementary Page S55).
(§2) All final compounds were evaluated against four human cancer cell lines namely; liver cancer (HepG2) (ATCC® HB-8065™), colon cancer (Caco-2) (ATCC® HTB-37™), leukaemia cancer (NFS-60) (ATCC® CRL-1838™), and prostate cancer (PC-3) (ATCC® CRL-1435™) using doxorubicin (Dox) as the reference drug being widely used in tumour management utilising microculture MTT assay, declared by Mosmann[26] (Table 1 in Supplementary Material, Figures 5–8). […]
(§3) MTT method was used for assaying cell viability 25. Twenty microliters of 5 mg/ml MTT (Sigma, USA) was added to each well and the plate was incubated at 37 °C for 3 h. Then MTT solution was removed, 100 µl DMSO was used and the absorbance of each well was measured with a microplate reader ( BMG LabTech, Germany) at 570 nm. The effective concentration (IC 50) and safe dose (EC100) values of the tested compounds that cause 50% and 100% cell viability were estimated by the Graphpad Instat software.
(§4) Determination of the anticancer activity
(§5) Anticancer effect of the above-mentioned compounds was evaluated using four human cancer cell lines. Colon cancer cells (Caco-2) were maintained in DMEM (Lonza, USA) containing 10% FBS while myeloid leukemia cell line (NFS-60), liver cancer cell line (HepG-2) and prostate cancer cell line (PC-3) were cultured in RPMI-1640 (Lonza, USA) supplemented with 10% FBS. All cancer cells (5x10^3 cells/well) were seeded in sterile 96-well plates. After 24h, serial concentrations of the tested compounds and Dox were incubated with four cancer cell lines for 72 h at 37 °C in 5% CO2 incubator. MTT method was done as described above. The Graphpad Instat software was used for calculating the half maximal inhibitory concentration (IC50) values. Furthermore, phase contrast inverted microscope with a digital camera (Olympus, Japan) was used for investigating […]
(§6) safest anticancer compounds. […]

[2] = tested on: prostate cancer cell line (PC-3); test: MTT anticancer activity, PC-3; type: cell-based, human; conditions: for PC-3 SI: selectivity index, Wi-38 versus PC-3; for PC-3 LE: ligand efficiency from IC50 and number of heavy atoms; for PC-3 LLE: ligand lipophilic efficiency, potency in terms of lipophilicity
Experimental: as §1, §2, §3, §4, §5, §6

[3] = tested on: liver cancer cell line (HepG-2); test: MTT anticancer activity, HepG-2; type: cell-based, human; conditions: selectivity index, Wi-38 versus HepG-2
Experimental: as §1, §2, §3, §4, §5, §6

N#Cc1c(-c2cc3cc(Cl)ccc3nc2N2CCOCC2)cc(-c2cccc(O)c2)nc1OCC(=O)Nc1ccc(Cl)cc1 [11e, 2-((4-(6-Chloro-2-morpholin-4-yl-quinolin-3-yl)-3-cyano-6-(3-hydroxyphenyl)pyridin-2-yl)oxy)-N-(4-chlorophenyl)acetamide]
NFS-60 SI [1]: 1.598 | PC-3 SI [2]: 1.914 | HepG-2 SI [3]: 2.043

COc1ccc(NC(=O)COc2nc(-c3cccc(O)c3)cc(-c3cc4cc(Cl)ccc4nc3N3CCOCC3)c2C#N)cc1 [11f, 2-((4-(6-Chloro-2-morpholin-4-yl-quinolin-3-yl)-3-cyano-6-(3-hydroxyphenyl)pyridin-2-yl)oxy)-N-(4-methoxyphenyl)acetamide]
NFS-60 SI [1]: 1.814 | PC-3 SI [2]: 3.803 | HepG-2 SI [3]: 4.986

COc1ccc2nc(N3CCOCC3)c(-c3cc(-c4cccc(O)c4)nc(OCC(=O)Nc4ccccc4)c3C#N)cc2c1 [11g, 2-((3-Cyano-6-(3-hydroxyphenyl)-4-(6-methoxy-2-morpholin-4-yl-quinolin-3-yl)pyridin-2-yl)oxy)-N-phenylacetamide]
NFS-60 SI [1]: 1.806 | PC-3 SI [2]: 2.217 | HepG-2 SI [3]: 2.962

COc1ccc2nc(N3CCOCC3)c(-c3cc(-c4cccc(O)c4)nc(OCC(=O)Nc4ccc(Cl)cc4)c3C#N)cc2c1 [11h, N-(4-Chlorophenyl)-2-((3-cyano-6-(3-hydroxyphenyl)-4-(6-methoxy-2-morpholin-4-yl-quinolin-3-yl)pyridin-2-yl)oxy)acetamide]
NFS-60 SI [1]: 2.125 | PC-3 SI [2]: 2.341 | HepG-2 SI [3]: 2.243

COc1ccc(NC(=O)COc2nc(-c3cccc(O)c3)cc(-c3cc4cc(OC)ccc4nc3N3CCOCC3)c2C#N)cc1 [11i, 2-((3-Cyano-6-(3-hydroxyphenyl)-4-(6-methoxy-2-morpholin-4-yl-quinolin-3-yl)pyridin-2-yl)oxy)-N-(4-methoxyphenyl)acetamide]
NFS-60 SI [1]: 0.493 | PC-3 SI [2]: 4.069 | HepG-2 SI [3]: 5.309

N#Cc1c(-c2cc3ccccc3[nH]c2=O)cc(-c2cccc(O)c2)[nH]c1=O [13a, 6-(3-Hydroxyphenyl)-2-oxo-4-(2-oxo-1,2-dihydroquinolin-3-yl)-1,2-dihydropyridine-3-carbonitrile]
NFS-60 SI [1]: 2.833 | PC-3 LE [2]: 0.39 | PC-3 LLE [2]: 5.37 | PC-3 SI [2]: 1.275 | HepG-2 SI [3]: 10.714

N#Cc1c(-c2cc3cc(Cl)ccc3[nH]c2=O)cc(-c2cccc(O)c2)[nH]c1=O [13b, 4-(6-Chloro-2-oxo-1,2-dihydroquinolin-3-yl)-6-(3-hydroxyphenyl)-2-oxo-1,2-dihydropyridine-3-carbonitrile]
NFS-60 SI [1]: 1.441 | PC-3 SI [2]: 1.253 | HepG-2 SI [3]: 1.573

COc1ccc2[nH]c(=O)c(-c3cc(-c4cccc(O)c4)[nH]c(=O)c3C#N)cc2c1 [13c, 6-(3-Hydroxyphenyl)-4-(6-methoxy-2-oxo-1,2-dihydroquinolin-3-yl)-2-oxo-1,2-dihydropyridine-3-carbonitrile]
NFS-60 SI [1]: 3.955 | PC-3 LE [2]: 0.36 | PC-3 LLE [2]: 5.29 | PC-3 SI [2]: 1.547 | HepG-2 SI [3]: 9.231

N#Cc1c(-c2cc3ccccc3[nH]c2=O)cc(-c2cccc(O)c2)nc1S [14a, 6-(3-Hydroxyphenyl)-2-mercapto-4-(2-oxo-1,2-dihydroquinolin-3-yl)pyridine-3-carbonitrile]
NFS-60 SI [1]: 12.888 | PC-3 LE [2]: 0.39 | PC-3 LLE [2]: 5.10 | PC-3 SI [2]: 17.798 | HepG-2 SI [3]: 23.543

N#Cc1c(-c2cc3cc(Cl)ccc3[nH]c2=O)cc(-c2cccc(O)c2)nc1S [14b, 4-(6-Chloro-2-oxo-1,2-dihydroquinolin-3-yl)-6-(3-hydroxyphenyl)-2-mercaptopyridine-3-carbonitrile]
NFS-60 SI [1]: 1.452 | PC-3 SI [2]: 1.400 | HepG-2 SI [3]: 1.568

COc1ccc2[nH]c(=O)c(-c3cc(-c4cccc(O)c4)nc(S)c3C#N)cc2c1 [14c, 6-(3-Hydroxyphenyl)-2-mercapto-4-(6-methoxy-2-oxo-1,2-dihydroquinolin-3-yl)pyridine-3-carbonitrile]
NFS-60 SI [1]: 1.720 | PC-3 SI [2]: 2.652 | HepG-2 SI [3]: 2.980

N#Cc1c(-c2cc3ccccc3[nH]c2=O)cc(-c2cccc(O)c2)nc1N [15a, 2-Amino-6-(3-hydroxyphenyl)-4-(2-oxo-1,2-dihydroquinolin-3-yl)pyridine-3-carbonitrile]
NFS-60 SI [1]: 0.818 | PC-3 SI [2]: 0.835 | HepG-2 SI [3]: 1.870

N#Cc1c(-c2cc3cc(Cl)ccc3[nH]c2=O)cc(-c2cccc(O)c2)nc1N [15b, 2-Amino-4-(6-chloro-2-oxo-1,2-dihydroquinolin-3-yl)-6-(3-hydroxyphenyl)pyridine-3-carbonitrile]
NFS-60 SI [1]: 0.817 | PC-3 SI [2]: 1.347 | HepG-2 SI [3]: 0.883

COc1ccc2[nH]c(=O)c(-c3cc(-c4cccc(O)c4)nc(N)c3C#N)cc2c1 [15c, 2-Amino-6-(3-hydroxyphenyl)-4-(6-methoxy-2-oxo-1,2-dihydroquinolin-3-yl)pyridine-3-carbonitrile]
NFS-60 SI [1]: 0.992 | PC-3 SI [2]: 0.846 | HepG-2 SI [3]: 1.131
